# Laboratory results reported in PubChem BioAssay AID504444 (National Center for Advancing Translational Sciences (NCATS), 2011).
# Screen size: about 360,000 compounds; about 7,500 (2.1%) were called active. Inconclusive means that the source gave no clear call. Such entries were picked first, then a sample of the others. The call rests on the fitted dose curve; in most records, active means well fitted inhibition curve with a large enough effect; inconclusive means small, poorly fitted or top-dose-only effect, or effect the other way; inactive means flat fitted curve, though single readings scatter. Where the call is inconclusive, the potency comes from a doubtful curve fit.
# Assay: Nrf2 qHTS screen for inhibitors; further: nearly all actives have a fitted effect of over 60% in size
# Conditions: A549 ARE-Fluc reporter, luciferase luminescence, 18-24 h; series mostly up to 46 µM
# Procedure, shortened: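 Concentration-response testing used A549 ARE_Fluc cells at 5000 cells/well. Following an 18-24 h compound incubation, viability was read by fluorescence (Ex 405/Em 525) and luciferase output by luminescence.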
# Potency means the concentration at half of the fitted maximal effect.
row,Compound,Potency
1,COC(=O)c1ccsc1NC(=O)CCS(=O)(=O)c1ccc(Cl)cc1,inactive
2,Cc1ccccc1CSc1nnc(-c2cccs2)n1Cc1ccco1,"inconclusive: 6.51 µM [falling, partial curve]"
3,CCCNC(=O)C1(CC2CC(c3ccccc3)=NO2)CCN(C(=O)CCCCCBr)CC1 (stereo unspecified),inactive
4,CC(=O)/C(=N\Nc1ccc(Cl)cc1Cl)Sc1nnc(-c2ccccc2)n1-c1ccccc1,"inconclusive: 4.61 µM [falling, single point]"
5,COc1ccc(C(=O)NCCc2ccccc2)cc1OC,"inconclusive: 20.6 µM [activator, single point]"
6,C=CCC[C@H](Cc1ccc(F)cc1)C(=O)OC[C@@H](C)NC(=O)[C@H](CC=C)CC(=O)N(CCO)Cc1ccccc1,inactive
7,Cc1ccc(CNC(=O)C2CCC(=O)N(Cc3cccc(C(F)(F)F)c3)C2)o1 (stereo unspecified),inactive
8,CCOc1ccc(C(=O)Nc2ccc(CN3CCOCC3)cc2)cc1Cl,"inconclusive: 23.1 µM [falling, partial curve, poor fit]"
9,CN(c1ccccc1)c1nc2ccsc2c(=O)s1,"inconclusive: 10.3 µM [activator, partial curve]"
10,COCCC(=O)N1CCc2ccc(NC(=O)c3ccc(C(F)(F)F)cc3)cc2C1,"inconclusive: 16.4 µM [falling, partial curve]"
11,C/C(=N\Nc1ccc(S(N)(=O)=O)cc1[N+](=O)[O-])c1ccco1,"inconclusive: 7.31 µM [falling, partial curve]"
12,O=C(CNC(=O)c1cccnc1)N/N=C/c1cc(Br)c(O)c(Br)c1,"inconclusive: 29.1 µM [falling, single point]"
13,COc1ccc(/C=C(/NC(=O)c2ccccc2)C(=O)NCc2ccncc2)cc1,"inconclusive: 2.31 µM [falling, partial curve, poor fit]"
14,COc1ccc(C(C(=O)NC2CCCCC2)N(Cc2cccs2)C(=O)Cc2c[nH]c3ccccc23)cc1 (stereo unspecified),"inconclusive: 25.9 µM [falling, partial curve, poor fit]"
15,Cc1ccc(C2=Nc3ccc(Br)cc3C(c3ccncc3)=NN2)cc1,"inconclusive: 3.66 µM [activator, full curve, poor fit]"
16,Cc1cc(C)cc(Oc2nc3c(C)cccn3c(=O)c2/C=C(\C#N)c2nc3ccccc3[nH]2)c1,inactive
17,CC(=O)Nc1cc2cc(NS(=O)(=O)c3ccc(Cl)cc3)ccc2oc1=O,inactive
18,CC(C)c1ccc(S(=O)(=O)c2nnn3c2nc(NCCc2ccccc2)c2sccc23)cc1,"inconclusive: 18.4 µM [falling, single point]"
19,Cc1ccc(CNC(=O)c2cc3sccc3n2Cc2ccc(Cl)cc2)cc1,inactive
20,COc1ccc(CNc2cccc3[nH]c(C(F)(F)F)nc23)cc1OC,"inconclusive: 23.1 µM [falling, single point]"
21,Cc1ccc(-n2ncc3c(=O)n(-c4ccc(C)c(C)c4)c(-c4ccco4)nc32)cc1,"inconclusive: 29.1 µM [falling, single point]"
22,CC(CCc1ccccc1)NC(=O)Cn1ncc2c3ccccc3n(Cc3ccc(F)cc3)c2c1=O (stereo unspecified),inactive

row,Compound,Potency
1,N#CC1=C(N)Oc2c(ccc3cccnc23)C1c1cccnc1 (stereo unspecified),"inconclusive: 2.91 µM [falling, partial curve, poor fit]"
2,O=S(=O)(/C(=C\c1ccc(C(F)(F)F)cc1)c1nc2ccccc2[nH]1)c1ccccc1,active: 16.4 µM
3,O=S(=O)(c1ccc2c(c1)OCCO2)N1CCC(n2nnc3cc(F)ccc32)CC1,"inconclusive: 0.146 µM [falling, full curve, poor fit]"
4,Cc1ccc(OCC(=O)N2CCCCC2)c(Br)c1,"inconclusive: 3.66 µM [activator, full curve]"
5,O=S(=O)(NC1CC1)c1ccc(S(=O)(=O)N2CCCC(c3nc(-c4cccnc4)no3)C2)cc1 (stereo unspecified),"inconclusive: 18.4 µM [falling, single point]"
6,CC1(C)CC(=O)c2cnc(N3CCc4ccccc4C3)nc2C1,"inconclusive: 0.58 µM [activator, full curve, poor fit]"
7,COCCNC(=O)Cc1ccc(NC(=O)N2CCCCc3ccccc32)cc1,"inconclusive: 25.9 µM [activator, single point]"
8,Cc1cc(CNC(=O)COc2ccc(F)cc2)c2ccccc2n1,"inconclusive: 16.4 µM [falling, single point]"
9,COc1cc(NC(=O)Cc2ccc(S(=O)(=O)N3CCOCC3)s2)c(OC)cc1Cl,"inconclusive: 25.9 µM [falling, single point]"
10,Cc1cccc(NC(=O)N2CCCCCC2)c1,"inconclusive: 13 µM [activator, partial curve]"
11,Cn1cc(CN(C(=O)Nc2ccc(Cl)c(Cl)c2)C2CCCCC2)c2ccccc21,"inconclusive: 6.51 µM [activator, single point]"
12,Cc1ccc(NC(=O)c2ccc(Cl)c(S(=O)(=O)N3CCCCCC3)c2)nc1,active: 23.1 µM
13,NC(=O)c1cccnc1Nc1cccc([N+](=O)[O-])c1,"inconclusive: 23.1 µM [activator, single point]"
14,N=c1c2c(ccn1CCc1ccccc1)Oc1ccc3ccccc3c1C2c1ccccc1 (stereo unspecified),active: 3.66 µM
15,CCOc1ccc(C(c2c(NC(=O)c3ccco3)sc(C)c2C)N2CCOCC2)cc1 (stereo unspecified),"inconclusive: 23.1 µM [falling, single point]"
16,Cc1ccc(NC(=O)Nc2ccc3c(c2)OCO3)nc1,"inconclusive: 4.11 µM [activator, full curve, poor fit]"
17,O=C1c2ccccc2C(=O)C1(c1ccccc1)N1CCN(c2cccc(Cl)c2)CC1,inactive
18,Cc1ccc(N=C2NC(=O)/C(=C/c3cn(C)c4ccccc34)S2)cc1C,active: 23.1 µM
19,Oc1ccc(COCc2ccccc2)c2cccnc12,"inconclusive: 29.1 µM [falling, partial curve, poor fit]"
20,COC(=O)c1ccc2nc(C(F)(F)F)[nH]c2c1,"inconclusive: 35.5 µM [falling, single point]"
21,Cc1ccc(SCC(=O)Nc2ccc3c(c2)OCCO3)cc1,"inconclusive: 14.6 µM [activator, partial curve, poor fit]"
22,Cc1ccc2nc(-c3ccsc3)c(Nc3ccccc3C)n2c1,"inconclusive: 18.4 µM [activator, partial curve]"

row,Compound,Potency
1,Cc1nc2nncn2c(N2CCN(c3ccccc3)CC2)c1C,inactive
2,COC(=O)c1ccc(/C=N/n2c(C)nc3ccccc3c2=O)cc1,"inconclusive: 6.51 µM [activator, partial curve, poor fit]"
3,CCOc1cc(-c2sc(Nc3cc(C)ccc3OC)n[n+]2-c2ccccc2)ccc1OC,"inconclusive: 18.4 µM [falling, single point]"
4,O=C(CSc1ccc(F)cc1)Nc1ccc(N2CCOCC2)c(Cl)c1,"inconclusive: 29.1 µM [falling, single point]"
5,COc1ccccc1NC(=O)c1oc2ccccc2c1NC(=O)c1cc(OC)c(OC)c(OC)c1,"inconclusive: 4.11 µM [falling, single point]"
6,COC(=O)c1c(NC(=O)CSc2nnc(C)c(=O)[nH]2)sc(C)c1C,inactive
7,C/C(=C\C(=O)Nc1nccs1)c1ccccc1,"inconclusive: 25.9 µM [activator, partial curve]"
8,CCc1ccc2[nH]c(=O)c(CN(Cc3ccc4c(c3)OCO4)C(=O)c3ccco3)cc2c1,"inconclusive: 23.1 µM [falling, single point]"
9,COc1ccc(-n2nc3ccc(NC(=O)c4ccc(-c5cc(Cl)ccc5Cl)o4)cc3n2)cc1,"inconclusive: 5.17 µM [falling, single point]"
10,CCn1c(SCc2ccccc2)nnc1-c1ccc(S(=O)(=O)N2CCCCC2)cc1,"inconclusive: 16.4 µM [falling, partial curve, poor fit]"
11,COc1ccc(NC(=O)/C=C/c2cccc(F)c2)cn1,"inconclusive: 0.731 µM [activator, full curve]"
12,Oc1ccccc1-c1cc(C(F)(F)C(F)F)nc(-c2ccccc2)n1,"inconclusive: 5.8 µM [falling, full curve, poor fit]"
13,CCc1ccccc1NC(=O)CNC(=O)c1cc(C2CC2)nc2c1cnn2C(C)C,"inconclusive: 29.1 µM [falling, single point]"
14,COc1ccc(-c2nc3ccccc3c(=O)n2NC(=S)N(C)C)cc1,inactive
15,O=C(NCc1ccco1)c1cc2nc(-c3ccc4c(c3)OCO4)cc(C(F)(F)F)n2n1,"inconclusive: 1.16 µM [falling, full curve, poor fit]"
16,COc1ccc(-n2ccnc(NCc3ccc(Cl)cc3)c2=O)cc1,"inconclusive: 20.6 µM [falling, single point]"
17,O=C(CNS(=O)(=O)c1ccc(Br)s1)NCC1COc2ccccc2O1 (stereo unspecified),"inconclusive: 20.6 µM [falling, partial curve]"
18,COc1cccc(C(=O)COC(=O)c2ccc(NC(=O)c3ccccc3)cc2)c1,"inconclusive: 28.2 µM [falling, single point]"
19,C=CCn1c(-c2ccc3ncccc3c2)n[nH]c1=S,"inconclusive: 16.4 µM [falling, partial curve, poor fit]"
20,Cc1ccc(C)c(OCC(=O)Nc2ccncc2)c1,active: 5.17 µM
21,Cc1cc(C)nc(N2CCCC(C(=O)Nc3cc(F)ccc3C)C2)n1 (stereo unspecified),inactive
22,Cc1cc2ncn(CCOc3ccccc3)c2cc1C,"inconclusive: 23.1 µM [activator, partial curve, poor fit]"

# Part of the list above in order of count of non-hydrogen atoms, falling.
row,Compound,Potency
18,COc1cccc(C(=O)COC(=O)c2ccc(NC(=O)c3ccccc3)cc2)c1,"inconclusive: 28.2 µM [falling, single point]"
17,O=C(CNS(=O)(=O)c1ccc(Br)s1)NCC1COc2ccccc2O1 (stereo unspecified),"inconclusive: 20.6 µM [falling, partial curve]"
22,Cc1cc2ncn(CCOc3ccccc3)c2cc1C,"inconclusive: 23.1 µM [activator, partial curve, poor fit]"
